Assay results reported in the supplement of paper PMC10849652.
The other results are listed elsewhere or left out.

Amino acid sequences for entries named in this document (tags omitted). A change or cut given only in a name is not applied to a line headed by its entry.
UniProt Q9GZP9: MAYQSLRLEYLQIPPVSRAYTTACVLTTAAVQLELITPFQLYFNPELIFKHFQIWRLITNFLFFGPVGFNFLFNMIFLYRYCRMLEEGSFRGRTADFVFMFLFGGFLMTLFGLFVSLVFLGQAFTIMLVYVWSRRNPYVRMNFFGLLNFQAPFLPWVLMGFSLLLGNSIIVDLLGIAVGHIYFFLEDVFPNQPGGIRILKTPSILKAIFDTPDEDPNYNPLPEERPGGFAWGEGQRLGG
UniProt Q9Y4B6: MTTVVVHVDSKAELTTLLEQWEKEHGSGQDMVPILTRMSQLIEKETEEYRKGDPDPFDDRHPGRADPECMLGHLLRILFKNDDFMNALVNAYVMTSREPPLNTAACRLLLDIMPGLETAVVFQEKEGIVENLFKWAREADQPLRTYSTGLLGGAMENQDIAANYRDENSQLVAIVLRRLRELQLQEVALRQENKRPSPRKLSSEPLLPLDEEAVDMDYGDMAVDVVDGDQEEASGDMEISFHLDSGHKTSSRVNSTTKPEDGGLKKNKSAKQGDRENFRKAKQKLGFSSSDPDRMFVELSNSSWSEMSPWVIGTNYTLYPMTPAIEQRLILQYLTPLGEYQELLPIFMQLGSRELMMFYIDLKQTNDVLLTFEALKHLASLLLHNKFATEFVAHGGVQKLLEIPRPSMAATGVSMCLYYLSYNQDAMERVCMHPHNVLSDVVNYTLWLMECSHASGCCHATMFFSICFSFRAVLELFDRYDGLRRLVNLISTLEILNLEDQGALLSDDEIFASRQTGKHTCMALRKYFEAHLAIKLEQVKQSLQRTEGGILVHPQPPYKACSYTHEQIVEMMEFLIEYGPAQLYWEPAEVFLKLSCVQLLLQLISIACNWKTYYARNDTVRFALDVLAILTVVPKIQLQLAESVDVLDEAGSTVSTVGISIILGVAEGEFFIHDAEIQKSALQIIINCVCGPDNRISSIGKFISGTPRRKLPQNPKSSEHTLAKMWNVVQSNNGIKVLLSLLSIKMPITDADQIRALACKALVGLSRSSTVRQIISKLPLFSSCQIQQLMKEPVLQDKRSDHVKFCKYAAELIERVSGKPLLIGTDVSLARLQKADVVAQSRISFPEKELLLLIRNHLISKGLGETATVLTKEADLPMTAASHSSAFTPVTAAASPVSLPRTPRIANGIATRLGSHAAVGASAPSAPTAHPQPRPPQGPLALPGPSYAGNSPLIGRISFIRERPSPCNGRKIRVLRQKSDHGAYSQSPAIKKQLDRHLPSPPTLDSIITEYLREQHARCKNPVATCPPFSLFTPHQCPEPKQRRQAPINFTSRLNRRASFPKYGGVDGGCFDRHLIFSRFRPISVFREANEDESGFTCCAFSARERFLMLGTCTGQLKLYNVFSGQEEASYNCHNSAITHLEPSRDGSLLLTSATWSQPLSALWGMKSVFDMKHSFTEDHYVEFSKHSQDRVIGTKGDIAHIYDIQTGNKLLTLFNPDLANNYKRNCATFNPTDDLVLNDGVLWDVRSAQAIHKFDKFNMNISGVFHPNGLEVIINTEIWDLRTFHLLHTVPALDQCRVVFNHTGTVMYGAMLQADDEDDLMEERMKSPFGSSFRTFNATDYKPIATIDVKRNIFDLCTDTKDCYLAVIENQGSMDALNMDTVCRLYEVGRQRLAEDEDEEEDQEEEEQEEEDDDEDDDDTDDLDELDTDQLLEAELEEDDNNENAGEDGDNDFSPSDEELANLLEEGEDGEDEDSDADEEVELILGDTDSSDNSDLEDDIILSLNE
UniProt P51397: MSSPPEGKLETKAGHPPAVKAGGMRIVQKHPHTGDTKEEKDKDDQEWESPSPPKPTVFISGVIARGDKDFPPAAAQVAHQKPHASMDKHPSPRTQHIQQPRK
UniProt O00399, whole entry, looked up: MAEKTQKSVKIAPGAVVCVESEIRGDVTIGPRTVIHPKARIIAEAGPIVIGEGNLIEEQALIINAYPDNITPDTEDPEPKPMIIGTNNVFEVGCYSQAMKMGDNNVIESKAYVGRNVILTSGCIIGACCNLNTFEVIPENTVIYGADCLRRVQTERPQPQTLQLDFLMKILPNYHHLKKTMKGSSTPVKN
UniProt O00273: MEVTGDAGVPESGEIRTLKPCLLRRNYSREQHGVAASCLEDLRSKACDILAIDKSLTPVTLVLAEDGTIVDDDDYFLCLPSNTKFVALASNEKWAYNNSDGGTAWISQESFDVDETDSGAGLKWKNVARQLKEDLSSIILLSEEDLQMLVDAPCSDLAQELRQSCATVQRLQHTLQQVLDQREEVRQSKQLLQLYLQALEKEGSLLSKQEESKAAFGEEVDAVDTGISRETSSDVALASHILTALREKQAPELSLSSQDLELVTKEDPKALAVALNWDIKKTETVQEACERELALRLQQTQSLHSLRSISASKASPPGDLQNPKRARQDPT
UniProt O75935, whole entry, looked up: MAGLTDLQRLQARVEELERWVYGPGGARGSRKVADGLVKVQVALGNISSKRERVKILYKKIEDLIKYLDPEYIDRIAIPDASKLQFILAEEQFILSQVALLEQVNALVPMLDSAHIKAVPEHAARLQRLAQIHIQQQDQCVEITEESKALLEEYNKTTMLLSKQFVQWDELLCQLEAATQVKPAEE
UniProt P27707: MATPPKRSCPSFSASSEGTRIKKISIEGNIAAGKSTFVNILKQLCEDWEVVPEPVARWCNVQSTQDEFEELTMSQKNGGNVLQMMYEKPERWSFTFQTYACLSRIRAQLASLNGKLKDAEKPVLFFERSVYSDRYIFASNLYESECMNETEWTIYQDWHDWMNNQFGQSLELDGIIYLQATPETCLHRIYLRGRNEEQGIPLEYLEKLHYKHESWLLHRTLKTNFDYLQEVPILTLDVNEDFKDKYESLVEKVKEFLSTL
UniProt Q7Z401: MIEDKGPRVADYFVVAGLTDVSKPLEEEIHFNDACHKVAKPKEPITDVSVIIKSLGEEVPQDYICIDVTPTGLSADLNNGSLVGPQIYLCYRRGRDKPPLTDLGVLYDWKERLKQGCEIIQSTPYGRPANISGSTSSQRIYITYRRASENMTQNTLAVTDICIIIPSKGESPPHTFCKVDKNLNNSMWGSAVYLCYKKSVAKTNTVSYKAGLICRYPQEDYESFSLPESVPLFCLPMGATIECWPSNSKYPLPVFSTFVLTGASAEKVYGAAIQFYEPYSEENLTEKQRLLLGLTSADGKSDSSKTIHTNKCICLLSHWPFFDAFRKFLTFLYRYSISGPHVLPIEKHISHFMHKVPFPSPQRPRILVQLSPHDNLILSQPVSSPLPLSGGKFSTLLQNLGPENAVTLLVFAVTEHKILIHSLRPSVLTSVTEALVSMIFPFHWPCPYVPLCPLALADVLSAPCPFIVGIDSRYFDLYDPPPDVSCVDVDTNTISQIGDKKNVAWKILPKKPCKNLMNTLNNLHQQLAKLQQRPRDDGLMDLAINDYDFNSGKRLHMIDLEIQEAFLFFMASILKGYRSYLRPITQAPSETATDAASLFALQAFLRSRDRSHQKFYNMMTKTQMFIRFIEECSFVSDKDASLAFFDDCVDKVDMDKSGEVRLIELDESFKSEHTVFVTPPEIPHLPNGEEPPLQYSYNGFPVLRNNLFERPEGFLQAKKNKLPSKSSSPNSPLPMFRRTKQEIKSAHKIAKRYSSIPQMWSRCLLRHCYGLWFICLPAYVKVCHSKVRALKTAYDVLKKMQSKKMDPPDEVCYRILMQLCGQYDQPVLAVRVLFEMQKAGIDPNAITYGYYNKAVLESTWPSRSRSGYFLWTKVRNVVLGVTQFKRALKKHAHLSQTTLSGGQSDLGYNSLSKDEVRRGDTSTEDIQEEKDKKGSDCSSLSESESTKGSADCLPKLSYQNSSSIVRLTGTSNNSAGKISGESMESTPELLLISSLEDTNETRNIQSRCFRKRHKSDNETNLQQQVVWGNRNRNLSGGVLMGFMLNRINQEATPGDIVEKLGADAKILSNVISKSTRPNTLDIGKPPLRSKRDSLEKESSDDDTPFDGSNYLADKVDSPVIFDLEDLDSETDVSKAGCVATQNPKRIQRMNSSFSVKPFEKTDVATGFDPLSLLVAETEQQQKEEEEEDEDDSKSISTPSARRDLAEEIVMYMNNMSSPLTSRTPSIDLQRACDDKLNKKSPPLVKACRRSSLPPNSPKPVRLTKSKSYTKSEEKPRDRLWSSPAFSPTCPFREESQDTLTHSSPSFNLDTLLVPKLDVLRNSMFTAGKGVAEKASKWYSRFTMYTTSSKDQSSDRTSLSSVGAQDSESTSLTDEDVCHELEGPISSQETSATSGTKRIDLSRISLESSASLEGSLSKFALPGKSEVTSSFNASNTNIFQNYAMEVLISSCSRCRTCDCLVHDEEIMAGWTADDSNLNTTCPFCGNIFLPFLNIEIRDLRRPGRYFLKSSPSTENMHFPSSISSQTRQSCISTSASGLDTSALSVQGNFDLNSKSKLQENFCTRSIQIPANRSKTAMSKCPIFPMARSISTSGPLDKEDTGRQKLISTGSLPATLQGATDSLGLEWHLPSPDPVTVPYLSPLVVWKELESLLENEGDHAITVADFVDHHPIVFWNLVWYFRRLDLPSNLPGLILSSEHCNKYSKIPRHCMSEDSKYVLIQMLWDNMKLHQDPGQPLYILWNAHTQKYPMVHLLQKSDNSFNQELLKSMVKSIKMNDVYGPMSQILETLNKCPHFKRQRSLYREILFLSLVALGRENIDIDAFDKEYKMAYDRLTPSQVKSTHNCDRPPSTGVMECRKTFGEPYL
UniProt Q92564: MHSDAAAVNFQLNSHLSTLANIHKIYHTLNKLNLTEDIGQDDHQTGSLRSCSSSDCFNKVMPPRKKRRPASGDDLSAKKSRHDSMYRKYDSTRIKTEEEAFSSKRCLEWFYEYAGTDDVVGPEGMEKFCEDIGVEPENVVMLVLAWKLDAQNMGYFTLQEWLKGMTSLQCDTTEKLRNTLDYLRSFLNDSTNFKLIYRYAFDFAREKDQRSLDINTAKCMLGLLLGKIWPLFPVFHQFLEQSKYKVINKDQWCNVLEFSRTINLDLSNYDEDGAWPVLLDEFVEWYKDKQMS
UniProt Q9NPI6: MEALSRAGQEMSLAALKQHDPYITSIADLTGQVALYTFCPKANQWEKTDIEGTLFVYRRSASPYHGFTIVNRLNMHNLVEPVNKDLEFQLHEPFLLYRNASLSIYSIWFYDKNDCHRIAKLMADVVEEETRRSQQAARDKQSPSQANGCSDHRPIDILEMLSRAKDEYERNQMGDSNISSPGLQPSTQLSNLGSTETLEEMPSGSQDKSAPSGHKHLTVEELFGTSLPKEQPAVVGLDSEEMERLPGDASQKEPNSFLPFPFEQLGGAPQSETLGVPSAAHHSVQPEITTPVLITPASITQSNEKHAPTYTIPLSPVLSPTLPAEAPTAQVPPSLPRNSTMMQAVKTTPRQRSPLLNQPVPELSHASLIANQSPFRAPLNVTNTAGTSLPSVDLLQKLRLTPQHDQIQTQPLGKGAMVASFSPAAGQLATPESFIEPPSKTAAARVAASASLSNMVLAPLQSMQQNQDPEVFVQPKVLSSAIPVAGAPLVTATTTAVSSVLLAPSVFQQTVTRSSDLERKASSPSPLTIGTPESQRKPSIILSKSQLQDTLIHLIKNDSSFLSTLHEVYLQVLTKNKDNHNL
UniProt Q86XP3: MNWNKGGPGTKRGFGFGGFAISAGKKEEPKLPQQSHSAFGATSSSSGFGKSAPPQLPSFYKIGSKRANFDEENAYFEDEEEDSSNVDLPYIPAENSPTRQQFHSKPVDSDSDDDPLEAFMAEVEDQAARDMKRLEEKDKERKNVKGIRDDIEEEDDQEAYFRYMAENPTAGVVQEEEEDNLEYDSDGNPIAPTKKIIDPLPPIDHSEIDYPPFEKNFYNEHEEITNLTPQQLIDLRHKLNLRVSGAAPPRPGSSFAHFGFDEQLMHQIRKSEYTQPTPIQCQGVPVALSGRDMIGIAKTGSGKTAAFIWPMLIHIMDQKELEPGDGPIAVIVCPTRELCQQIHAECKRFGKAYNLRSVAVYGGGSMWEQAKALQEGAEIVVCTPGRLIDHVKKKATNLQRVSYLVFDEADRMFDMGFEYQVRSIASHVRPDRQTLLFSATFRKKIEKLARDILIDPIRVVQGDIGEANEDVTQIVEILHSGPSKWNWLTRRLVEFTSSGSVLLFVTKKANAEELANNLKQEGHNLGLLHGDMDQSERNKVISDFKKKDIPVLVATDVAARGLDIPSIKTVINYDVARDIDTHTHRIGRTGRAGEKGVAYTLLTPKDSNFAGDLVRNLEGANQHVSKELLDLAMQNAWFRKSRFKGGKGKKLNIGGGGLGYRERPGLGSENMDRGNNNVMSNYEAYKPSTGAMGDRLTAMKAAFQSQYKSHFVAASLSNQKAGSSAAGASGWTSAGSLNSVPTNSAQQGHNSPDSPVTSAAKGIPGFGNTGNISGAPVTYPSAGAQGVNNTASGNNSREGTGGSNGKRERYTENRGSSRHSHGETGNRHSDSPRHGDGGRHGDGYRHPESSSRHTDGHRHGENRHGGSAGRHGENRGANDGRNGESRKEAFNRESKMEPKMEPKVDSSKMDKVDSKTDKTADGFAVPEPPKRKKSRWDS

Columns and labels:
Assay in all cases: log2 fold change, soluble protein after heating vs DMSO (PISA); higher = thermal stabilisation; K562 lysate, 10 uM; active = over 0.2 and 3.5 SD of the protein, either way, in both replicates (recomputed)
vemurafenib = compound: CCCS(=O)(=O)Nc1ccc(F)c(C(=O)c2c[nH]c3ncc(-c4ccc(Cl)cc4)cc23)c1F [vemurafenib]
Summary of the method: (§1)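 Dounce homogenisation of K562 pellets in PBS pH 7.4 with 1 mM MgCl2 produced a crude extract, used at 1 mg/mL protein. Exposure to 10 μM compound lasted 30 min, and aliquots were then heated for 3 min across 48°C-58°C, pooled and brought to 0.5% NP-40 at 4°C. The supernatant after 21,000xg for 90 min was quantified by TMTpro 16plex LC-MS/MS with channel sums equalised. Duplicate values are given as log-two fold change in thermal stability relative to solvent controls.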

[1] = compound: CCCS(=O)(=O)Nc1ccc(F)c(C(=O)c2c[nH]c3ncc(Cl)cc23)c1F
Summary of the method: as §1

barasertib = compound: CCN(CCCOc1ccc2c(Nc3cc(CC(=O)Nc4cccc(F)c4)[nH]n3)ncnc2c1)CCOP(=O)(O)O [barasertib]
Summary of the method: as §1

[2] = compound: CC[C@@H]1C(=O)N(C)c2cnc(Nc3ccc(C(=O)NC4CCN(C)CC4)cc3OC)nc2N1C1CCCC1
Summary of the method: as §1

volasertib = compound: CC[C@@H]1C(=O)N(C)c2cnc(Nc3ccc(C(=O)N[C@H]4CC[C@H](N5CCN(CC6CC6)CC5)CC4)cc3OC)nc2N1C(C)C [volasertib]
Summary of the method: as §1

[3] = compound: CCn1c(C(=O)N(C2CC2)C2CC2)cc2c3c(ncn3C)c(Nc3cc(C)n(C)n3)nc21
Summary of the method: as §1

[4] = compound: CCn1cc(-c2ccnc3[nH]c(-c4cccc(CN(C)C)c4)cc23)c(-c2ccc(NC(=O)N(C)C)cc2)n1
Summary of the method: as §1

[5] = compound: CN1CCC(CNc2ccc3ncc(-c4cccc(OC(F)(F)F)c4)n3n2)CC1
Summary of the method: as §1

saracatinib = compound: CN1CCN(CCOc2cc(OC3CCOCC3)c3c(Nc4c(Cl)ccc5c4OCO5)ncnc3c2)CC1 [saracatinib]
Summary of the method: as §1

sotrastaurin = compound: CN1CCN(c2nc(C3=C(c4c[nH]c5ccccc45)C(=O)NC3=O)c3ccccc3n2)CC1 [sotrastaurin]
Summary of the method: as §1

Row | Target | log2 fold change (vemurafenib) | log2 fold change [1] | log2 fold change (barasertib) | log2 fold change [2] | log2 fold change (volasertib) | log2 fold change [3] | log2 fold change [4] | log2 fold change [5] | log2 fold change (saracatinib) | log2 fold change (sotrastaurin)
1 | DDX54 isoform 2 (UniProt Q8TDD1) | inactive: -0.041 | inactive: 0.017 | active: -0.319 | inactive: -0.069 | inactive: -0.045 | inactive: 0.053 | inactive: -0.056 | inactive: 0 | inactive: -0.015 | inactive: 0.045
2 | DERL2 (UniProt Q9GZP9) | inactive: 0.079 | inactive: -0.012 | inactive: -0.009 | inactive: 0.02 | inactive: -0.163 | inactive: -0.057 | inactive: -0.06 | inactive: -0.003 | inactive: 0.072 | inactive: 0.048
3 | DDX19B (UniProt Q9UMR2) | inactive: -0.002 | inactive: -0.002 | inactive: 0.119 | inactive: 0.007 | inactive: -0.034 | inactive: -0.008 | inactive: -0.077 | inactive: 0.028 | inactive: 0 | inactive: 0.018
4 | DEK (UniProt P35659) | inactive: 0.005 | inactive: -0.003 | inactive: -0.027 | inactive: 0.04 | inactive: 0.001 | inactive: -0.011 | inactive: -0.043 | inactive: 0.01 | inactive: -0.007 | inactive: -0.037
5 | DDHD2 (UniProt O94830) | inactive: 0.042 | inactive: 0.012 | inactive: 0.009 | inactive: 0.023 | inactive: -0.009 | inactive: 0.009 | inactive: -0.056 | inactive: 0 | inactive: 0.04 | inactive: -0.003
6 | DCAF1 (UniProt Q9Y4B6) | inactive: -0.009 | inactive: 0.019 | inactive: -0.005 | inactive: -0.023 | inactive: 0.005 | inactive: -0.013 | inactive: 0.023 | inactive: -0.004 | inactive: 0.013 | inactive: 0.028
7 | DBN1 (UniProt Q16643) | inactive: 0.001 | inactive: 0.001 | inactive: -0.021 | inactive: 0.011 | inactive: 0.017 | inactive: -0.009 | inactive: 0.007 | inactive: 0.011 | inactive: -0.015 | inactive: 0.006
8 | DAP3 (UniProt P51398) | inactive: -0.031 | inactive: 0.021 | inactive: 0.019 | inactive: 0.033 | inactive: -0.026 | inactive: 0.01 | inactive: -0.016 | inactive: -0.063 | inactive: 0.017 | inactive: -0.028
9 | DARS2 (UniProt Q6PI48) | inactive: 0.056 | inactive: 0.001 | inactive: 0.025 | inactive: -0.008 | inactive: -0.075 | inactive: 0.036 | inactive: -0.022 | inactive: -0.025 | inactive: 0.003 | inactive: 0.022
10 | DAP (UniProt P51397) | inactive: -0.02 | inactive: 0.007 | inactive: 0.097 | inactive: 0.11 | inactive: 0.024 | inactive: -0.04 | inactive: -0.031 | inactive: 0.092 | inactive: 0.003 | inactive: -0.008
11 | DERA (UniProt Q9Y315) | inactive: -0.013 | inactive: -0.001 | inactive: -0.064 | inactive: 0.077 | inactive: 0.025 | inactive: -0.031 | active: 0.985 | inactive: -0.115 | inactive: 0 | inactive: -0.03
12 | DDX17 (UniProt Q92841) | inactive: 0.011 | inactive: -0.002 | inactive: 0.001 | inactive: -0.008 | inactive: -0.008 | inactive: 0.006 | inactive: -0.042 | inactive: 0.049 | inactive: -0.004 | inactive: 0.014
13 | DCTN6 (UniProt O00399) | inactive: -0.041 | inactive: 0.01 | inactive: 0.026 | inactive: 0.002 | inactive: 0.028 | inactive: -0.022 | inactive: 0.025 | inactive: 0.003 | inactive: 0.007 | inactive: -0.037
14 | DAB2 (UniProt P98082) | inactive: -0.009 | inactive: 0.025 | inactive: 0.028 | inactive: 0.061 | inactive: -0.021 | inactive: 0.02 | inactive: 0.001 | inactive: 0.016 | inactive: 0.059 | inactive: -0.033
15 | DDX18 (UniProt Q9NVP1) | inactive: 0.018 | inactive: 0.029 | inactive: -0.013 | inactive: -0.05 | inactive: -0.02 | inactive: 0.012 | inactive: -0.019 | inactive: 0.032 | inactive: 0.003 | inactive: 0.037
16 | DFFA (UniProt O00273) | inactive: -0.025 | inactive: 0.03 | inactive: -0.043 | inactive: 0.038 | inactive: 0.021 | inactive: 0.013 | inactive: 0.011 | inactive: 0.021 | inactive: -0.035 | inactive: -0.047
17 | DCTN2 (UniProt Q13561) | inactive: 0.335 | inactive: -0.015 | inactive: 0.042 | inactive: 0.14 | inactive: 0.13 | inactive: -0.028 | inactive: -0.037 | inactive: 0.033 | inactive: 0.155 | inactive: -0.152
18 | DCTN3 (UniProt O75935) | inactive: 0.016 | inactive: -0.003 | inactive: 0.036 | inactive: -0.03 | inactive: -0.003 | inactive: 0.025 | inactive: 0.007 | inactive: -0.021 | inactive: -0.011 | inactive: -0.025
19 | DDX20 (UniProt Q9UHI6) | inactive: -0.058 | inactive: 0.018 | inactive: 0.011 | inactive: -0.087 | inactive: -0.061 | inactive: 0.036 | inactive: -0.037 | inactive: -0.094 | inactive: 0.036 | inactive: 0.004
20 | DCK (UniProt P27707) | inactive: 0.017 | inactive: 0.005 | inactive: -0.008 | inactive: 0.06 | inactive: 0.099 | inactive: -0.027 | inactive: 0.188 | inactive: -0.058 | inactive: 0.007 | inactive: 0.024
21 | DCAF7 (UniProt P61962) | inactive: 0.014 | inactive: 0.034 | inactive: 0.042 | inactive: -0.013 | inactive: -0.003 | inactive: 0.051 | inactive: 0.01 | inactive: 0.037 | inactive: 0.022 | inactive: 0.006
22 | DCAF6 isoform 3 (UniProt Q58WW2) | inactive: -0.049 | inactive: 0.017 | inactive: 0.041 | inactive: 0.01 | inactive: -0.011 | inactive: -0.005 | inactive: 0.095 | inactive: -0.01 | inactive: -0.012 | inactive: 0
23 | DES (UniProt P17661) | inactive: 0.084 | inactive: 0.008 | inactive: -0.001 | inactive: 0.045 | inactive: 0.058 | inactive: -0.026 | active: -0.434 | inactive: 0.149 | inactive: 0.106 | inactive: -0.012
24 | DENND4A isoform 2 (UniProt Q7Z401) | inactive: -0.024 | inactive: 0.024 | inactive: 0.029 | inactive: 0.011 | inactive: -0.069 | inactive: 0.004 | inactive: -0.132 | inactive: 0.099 | inactive: 0.059 | inactive: 0.025
25 | DCUN1D4 isoform 3 (UniProt Q92564) | inactive: 0.066 | inactive: 0.075 | inactive: -0.027 | active: -0.321 | inactive: 0.049 | inactive: -0.02 | inactive: -0.036 | inactive: 0.02 | inactive: 0.005 | inactive: 0.028
26 | DCP1A (UniProt Q9NPI6) | inactive: 0.023 | inactive: 0.017 | inactive: -0.066 | inactive: 0.077 | inactive: -0.055 | inactive: 0.029 | inactive: -0.082 | inactive: 0.059 | inactive: -0.006 | inactive: -0.053
27 | DDX42 (UniProt Q86XP3) | inactive: 0.007 | inactive: 0.014 | inactive: 0.03 | inactive: -0.005 | inactive: -0.013 | inactive: -0.03 | inactive: -0.008 | inactive: -0.003 | inactive: -0.024 | inactive: 0.035
28 | DDX24 (UniProt Q9GZR7) | inactive: 0.008 | inactive: 0.008 | inactive: -0.015 | inactive: -0.015 | inactive: -0.009 | inactive: 0.001 | inactive: -0.021 | inactive: 0.041 | inactive: 0.026 | inactive: -0.016
29 | DCPS (UniProt Q96C86) | inactive: 0.033 | inactive: -0.007 | inactive: 0.024 | inactive: 0.089 | inactive: 0 | inactive: 0.01 | inactive: -0.003 | inactive: 0.023 | inactive: 0.001 | inactive: 0.008
30 | DDRGK1 (UniProt Q96HY6) | inactive: 0.037 | inactive: 0.003 | inactive: -0.006 | inactive: 0.061 | inactive: -0.012 | inactive: 0.04 | inactive: 0.01 | inactive: 0.002 | inactive: 0.044 | inactive: 0.034

Another view of some results above.
Row	Target	log2 fold change (vemurafenib)	log2 fold change [1]	log2 fold change (barasertib)	log2 fold change [2]	log2 fold change (volasertib)	log2 fold change [3]	log2 fold change [4]	log2 fold change [5]	log2 fold change (saracatinib)	log2 fold change (sotrastaurin)
7	DBN1 (UniProt Q16643)	inactive: 0.001	inactive: 0.001	inactive: -0.021	inactive: 0.011	inactive: 0.017	inactive: -0.009	inactive: 0.007	inactive: 0.011	inactive: -0.015	inactive: 0.006
11	DERA (UniProt Q9Y315)	inactive: -0.013	inactive: -0.001	inactive: -0.064	inactive: 0.077	inactive: 0.025	inactive: -0.031	active: 0.985	inactive: -0.115	inactive: 0	inactive: -0.03
19	DDX20 (UniProt Q9UHI6)	inactive: -0.058	inactive: 0.018	inactive: 0.011	inactive: -0.087	inactive: -0.061	inactive: 0.036	inactive: -0.037	inactive: -0.094	inactive: 0.036	inactive: 0.004
20	DCK (UniProt P27707)	inactive: 0.017	inactive: 0.005	inactive: -0.008	inactive: 0.06	inactive: 0.099	inactive: -0.027	inactive: 0.188	inactive: -0.058	inactive: 0.007	inactive: 0.024
26	DCP1A (UniProt Q9NPI6)	inactive: 0.023	inactive: 0.017	inactive: -0.066	inactive: 0.077	inactive: -0.055	inactive: 0.029	inactive: -0.082	inactive: 0.059	inactive: -0.006	inactive: -0.053
